Drawing on publication PMC13434726, this text covers binding for ten substances.

Amino acid sequences for entries named in this document (tags omitted).
UniProt Q04206: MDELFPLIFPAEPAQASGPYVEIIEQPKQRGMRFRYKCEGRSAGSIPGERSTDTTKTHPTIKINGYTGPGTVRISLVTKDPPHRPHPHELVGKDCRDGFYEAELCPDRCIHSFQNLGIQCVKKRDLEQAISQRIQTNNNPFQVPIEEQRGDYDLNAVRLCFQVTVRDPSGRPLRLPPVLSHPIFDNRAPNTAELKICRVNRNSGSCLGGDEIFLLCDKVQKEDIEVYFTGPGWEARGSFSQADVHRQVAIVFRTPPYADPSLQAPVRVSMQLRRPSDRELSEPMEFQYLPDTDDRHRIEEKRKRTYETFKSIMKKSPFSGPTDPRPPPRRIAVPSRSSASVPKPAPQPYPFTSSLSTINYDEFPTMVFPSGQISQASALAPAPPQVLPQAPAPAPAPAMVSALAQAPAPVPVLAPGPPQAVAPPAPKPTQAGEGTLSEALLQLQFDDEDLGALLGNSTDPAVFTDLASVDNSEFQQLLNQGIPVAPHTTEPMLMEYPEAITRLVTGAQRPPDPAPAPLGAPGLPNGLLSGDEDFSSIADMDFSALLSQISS
UniProt Q9H0A8: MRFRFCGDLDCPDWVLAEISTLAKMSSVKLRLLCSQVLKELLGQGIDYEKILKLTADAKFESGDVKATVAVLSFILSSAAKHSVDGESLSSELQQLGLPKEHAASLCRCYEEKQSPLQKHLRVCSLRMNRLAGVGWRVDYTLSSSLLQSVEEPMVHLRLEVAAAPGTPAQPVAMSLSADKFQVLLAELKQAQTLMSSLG
UniProt Q567U6: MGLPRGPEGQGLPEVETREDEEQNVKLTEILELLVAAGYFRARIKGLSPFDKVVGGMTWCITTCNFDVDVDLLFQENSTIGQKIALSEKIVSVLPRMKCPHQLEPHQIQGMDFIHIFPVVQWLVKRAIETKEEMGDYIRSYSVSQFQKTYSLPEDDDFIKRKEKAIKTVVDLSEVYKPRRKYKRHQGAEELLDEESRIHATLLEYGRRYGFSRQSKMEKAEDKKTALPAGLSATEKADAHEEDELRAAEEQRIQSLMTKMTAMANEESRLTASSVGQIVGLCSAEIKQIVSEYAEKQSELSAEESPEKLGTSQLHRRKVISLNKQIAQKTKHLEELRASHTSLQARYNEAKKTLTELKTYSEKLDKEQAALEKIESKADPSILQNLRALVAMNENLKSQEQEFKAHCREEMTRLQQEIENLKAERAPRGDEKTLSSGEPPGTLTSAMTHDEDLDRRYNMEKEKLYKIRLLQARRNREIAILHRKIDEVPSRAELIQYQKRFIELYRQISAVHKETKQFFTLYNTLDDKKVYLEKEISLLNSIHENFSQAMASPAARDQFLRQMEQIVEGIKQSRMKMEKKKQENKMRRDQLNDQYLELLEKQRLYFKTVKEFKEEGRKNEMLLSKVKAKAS
UniProt Q8N668: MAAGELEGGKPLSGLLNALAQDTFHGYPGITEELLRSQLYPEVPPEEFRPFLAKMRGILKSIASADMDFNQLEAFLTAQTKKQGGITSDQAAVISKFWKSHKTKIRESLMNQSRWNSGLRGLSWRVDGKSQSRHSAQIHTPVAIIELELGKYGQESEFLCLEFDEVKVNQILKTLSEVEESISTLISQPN
UniProt Q9UBN7: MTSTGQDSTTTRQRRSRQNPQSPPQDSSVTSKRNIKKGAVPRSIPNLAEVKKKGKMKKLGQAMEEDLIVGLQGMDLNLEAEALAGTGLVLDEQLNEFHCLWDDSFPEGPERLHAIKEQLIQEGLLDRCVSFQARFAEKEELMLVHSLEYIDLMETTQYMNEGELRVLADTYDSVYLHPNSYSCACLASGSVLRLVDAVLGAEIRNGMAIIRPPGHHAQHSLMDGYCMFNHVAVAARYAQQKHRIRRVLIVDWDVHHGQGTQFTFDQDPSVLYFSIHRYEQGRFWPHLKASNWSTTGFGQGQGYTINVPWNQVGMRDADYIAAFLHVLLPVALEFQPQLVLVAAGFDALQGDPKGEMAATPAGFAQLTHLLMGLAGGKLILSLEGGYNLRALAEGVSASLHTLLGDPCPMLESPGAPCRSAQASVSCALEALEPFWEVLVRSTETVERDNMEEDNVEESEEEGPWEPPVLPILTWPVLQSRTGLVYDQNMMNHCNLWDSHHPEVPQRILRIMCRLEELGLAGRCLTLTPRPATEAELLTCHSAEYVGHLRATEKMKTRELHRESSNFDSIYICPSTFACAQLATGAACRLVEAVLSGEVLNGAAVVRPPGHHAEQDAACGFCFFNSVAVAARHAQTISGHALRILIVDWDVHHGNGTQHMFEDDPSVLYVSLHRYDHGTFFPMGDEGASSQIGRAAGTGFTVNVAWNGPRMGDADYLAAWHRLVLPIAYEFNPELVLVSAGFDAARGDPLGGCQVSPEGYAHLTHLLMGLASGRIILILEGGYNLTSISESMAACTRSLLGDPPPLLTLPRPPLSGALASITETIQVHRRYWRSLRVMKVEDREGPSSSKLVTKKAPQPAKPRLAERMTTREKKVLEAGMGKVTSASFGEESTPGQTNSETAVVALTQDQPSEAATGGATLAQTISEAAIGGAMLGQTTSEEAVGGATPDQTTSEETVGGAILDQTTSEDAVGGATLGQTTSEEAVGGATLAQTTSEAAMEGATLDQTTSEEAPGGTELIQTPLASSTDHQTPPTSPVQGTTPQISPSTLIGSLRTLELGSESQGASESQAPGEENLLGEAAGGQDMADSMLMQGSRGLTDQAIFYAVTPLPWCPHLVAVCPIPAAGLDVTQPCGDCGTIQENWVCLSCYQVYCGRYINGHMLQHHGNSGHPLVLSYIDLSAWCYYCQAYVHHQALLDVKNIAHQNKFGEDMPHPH
UniProt O60826: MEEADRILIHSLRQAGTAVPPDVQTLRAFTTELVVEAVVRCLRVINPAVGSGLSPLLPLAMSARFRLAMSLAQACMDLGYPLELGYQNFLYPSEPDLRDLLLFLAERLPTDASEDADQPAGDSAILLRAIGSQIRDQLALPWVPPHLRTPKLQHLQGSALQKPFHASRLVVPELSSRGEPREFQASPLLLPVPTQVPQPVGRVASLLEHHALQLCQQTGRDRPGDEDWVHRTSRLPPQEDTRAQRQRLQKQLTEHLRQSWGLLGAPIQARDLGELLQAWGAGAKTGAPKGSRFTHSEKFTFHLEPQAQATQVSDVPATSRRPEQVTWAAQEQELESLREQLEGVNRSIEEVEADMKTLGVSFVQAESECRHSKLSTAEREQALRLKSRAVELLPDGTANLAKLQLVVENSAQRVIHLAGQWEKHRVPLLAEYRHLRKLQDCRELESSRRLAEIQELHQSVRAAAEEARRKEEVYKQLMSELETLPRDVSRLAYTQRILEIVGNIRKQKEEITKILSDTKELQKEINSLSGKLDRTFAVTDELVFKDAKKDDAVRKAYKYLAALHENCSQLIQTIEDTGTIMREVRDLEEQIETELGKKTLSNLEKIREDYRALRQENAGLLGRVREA
UniProt O00762: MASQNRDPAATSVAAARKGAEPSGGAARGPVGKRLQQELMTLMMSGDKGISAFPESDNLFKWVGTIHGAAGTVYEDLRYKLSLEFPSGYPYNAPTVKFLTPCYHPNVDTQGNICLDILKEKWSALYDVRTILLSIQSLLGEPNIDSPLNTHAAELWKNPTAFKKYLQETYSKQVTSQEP
UniProt Q7Z4G1: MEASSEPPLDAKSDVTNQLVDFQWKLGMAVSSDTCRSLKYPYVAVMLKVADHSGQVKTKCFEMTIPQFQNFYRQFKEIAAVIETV
UniProt Q9NX08: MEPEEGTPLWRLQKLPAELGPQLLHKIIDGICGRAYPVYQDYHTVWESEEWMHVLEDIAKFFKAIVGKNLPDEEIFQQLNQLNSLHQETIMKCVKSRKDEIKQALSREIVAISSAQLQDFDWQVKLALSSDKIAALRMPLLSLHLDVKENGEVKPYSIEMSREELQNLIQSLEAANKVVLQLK

For one assay, the target named is GFP-COMMD2 (UniProt Q86X83). The assay is described as follows: affinity purification with mass spectrometry.
For assay [1], the target named is GFP-p65 (UniProt Q04206). The assay can be described thus: affinity purification with mass spectrometry.
Assay [2] deals with GFP-p65 (UniProt Q04206). The assay is described as follows: affinity purification with mass spectrometry; GFP-trap agarose immunoprecipitation of GFP-p65 from RIPA lysates of the stable A549 GFP-p65 cell line 2 h after challenge with TIGR4 or 6B ST90 (MOI 20); matched A549 GFP alone control; on-bead trypsin digestion, label-free LC-MS/MS.

These are yes or no findings as the source states them, for the method shown. In cells and extracts the contact can be indirect. These calls come from enrichment with a bait or labelling near it, and not all partners need be listed.

For p65 (from UniProt Q04206 1-551), in the assay with GFP-COMMD2, the binding result is listed as “binds”.

As for COMMD4 (from UniProt Q9H0A8 1-199), the binding result with GFP-p65 [1] and with GFP-COMMD2 was “binds” throughout.

For CCDC93 (from UniProt Q567U6 1-631), in the assay with GFP-COMMD2, the binding result is “binds”.

As for COMMD1 (from UniProt Q8N668 1-190), in the assay with GFP-COMMD2, the binding result was “binds”.

On to HDAC6 (from UniProt Q9UBN7 1-1215), for which the binding entry with GFP-COMMD2 and in the assay with GFP-p65 [2] was “binds” throughout.

CCDC22 (from UniProt O60826 1-627): the binding result in the assay with GFP-COMMD2 is recorded as “binds”.

Consider p62/SQSTM1 (from UniProt Q13501 1-440), for which the binding result with GFP-p65 [1] and with GFP-COMMD2 was “binds” in each case.

Regarding UBE2C (from UniProt O00762 1-179), in the assay with GFP-p65 [1], the binding result is “binds”.

Regarding COMMD6 (from UniProt Q7Z4G1 1-85), in the assay with GFP-COMMD2, the binding entry was “binds”.

In the case of COMMD8 (from UniProt Q9NX08 1-183), the binding entry with GFP-COMMD2 is recorded as “binds”.
